The source of these data is article PMC10869362.

No constants are given. Whether binding was seen depends on the method and setting. Binding seen in cells or lysates may run through a third protein. Some binding calls cover weakened binding; strength is not graded here.

The assay concerns the target T1, VPS18, endogenous in HeLa cells (human (endogenous in HeLa)) (UniProt Q9P253).
T1 sequence: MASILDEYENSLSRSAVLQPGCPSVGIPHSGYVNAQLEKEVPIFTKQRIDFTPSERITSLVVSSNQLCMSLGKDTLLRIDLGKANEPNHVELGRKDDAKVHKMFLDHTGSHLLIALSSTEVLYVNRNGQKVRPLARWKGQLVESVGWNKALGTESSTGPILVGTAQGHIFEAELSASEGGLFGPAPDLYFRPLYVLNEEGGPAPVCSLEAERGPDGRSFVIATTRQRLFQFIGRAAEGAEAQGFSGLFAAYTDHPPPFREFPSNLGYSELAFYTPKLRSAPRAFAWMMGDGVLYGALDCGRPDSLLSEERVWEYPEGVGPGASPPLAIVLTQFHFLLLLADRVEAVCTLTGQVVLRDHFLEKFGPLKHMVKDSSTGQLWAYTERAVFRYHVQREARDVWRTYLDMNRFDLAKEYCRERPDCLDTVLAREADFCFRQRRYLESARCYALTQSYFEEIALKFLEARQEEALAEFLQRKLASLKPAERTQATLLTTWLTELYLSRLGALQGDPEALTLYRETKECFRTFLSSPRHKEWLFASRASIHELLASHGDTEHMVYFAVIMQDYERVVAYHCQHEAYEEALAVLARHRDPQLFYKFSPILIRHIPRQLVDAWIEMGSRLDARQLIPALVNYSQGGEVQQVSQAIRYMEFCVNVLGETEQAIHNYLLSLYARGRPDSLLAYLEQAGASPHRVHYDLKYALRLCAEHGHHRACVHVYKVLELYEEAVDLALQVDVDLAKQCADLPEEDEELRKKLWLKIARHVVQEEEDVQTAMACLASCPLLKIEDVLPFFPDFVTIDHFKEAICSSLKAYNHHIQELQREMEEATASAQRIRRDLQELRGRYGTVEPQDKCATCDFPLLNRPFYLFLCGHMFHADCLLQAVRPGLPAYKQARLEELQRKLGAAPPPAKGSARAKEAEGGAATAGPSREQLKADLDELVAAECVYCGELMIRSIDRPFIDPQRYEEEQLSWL
Kind of assay: co-IP; endogenous proteins of HeLa lysate (NP-40 lysis buffer); IP with anti-ZNRF2, anti-VPS18 or control IgG on magnetic protein G-Sepharose, blots with anti-ZNRF2 or anti-VPS18.

B1: ZNRF2, endogenous in HeLa cells (enzyme, UniProt Q8NHG8 1-242)
chain: MGAKQSGPAAANGRTRAYSGSDLPSSSSGGANGTAGGGGGARAAAAGRFPAQVPSAHQPSASGGAAAAAAAPAAPAAPRSRSLGGAVGSVASGARAAQSPFSIPNSSSGPYGSQDSVHSSPEDGGGGRDRPVGGSPGGPRLVIGSLPAHLSPHMFGGFKCPVCSKFVSSDEMDLHLVMCLTKPRITYNEDVLSKDAGECAICLEELQQGDTIARLPCLCIYHKGCIDEWFEVNRSCPEHPSD
For the molecule B1, the binding entry is reported as “binds”.
